Experimental data: patent publication US20240209062A1 (INVETX, published 2024)
No constants are given. Whether binding was seen depends on the method and setting. Some results given as binding are weak or reduced against the parent protein; the word gives no strength. Where a sequence is shown, tags or fusion partners need not be part of it.

The chains behind the UniProt entries cited, without tags or fusion partners. Where a name states a change or a piece, a line headed by the entry shows the natural chain unless it says otherwise.
UniProt Q5MGS7: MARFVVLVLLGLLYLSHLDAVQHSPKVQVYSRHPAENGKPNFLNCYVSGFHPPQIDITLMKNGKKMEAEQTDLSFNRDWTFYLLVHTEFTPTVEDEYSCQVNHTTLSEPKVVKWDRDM

B1: IgG with feline IgG1a Fc variant S252M (antibody)
heavy: DVQLVESGGDLVKPGGSLRLTCVASGLSLTSDSMSWVRQAPGKGLQWVSTLWSNRGTYYTDSVKGRFTISKDNAENTLYLQMNNLKTEDTATYYCASIYYYEADYLHWYFDFWGQGALVTVSSASTTAPSVFPLAPSCGTTSGATVALACLVLGYFPEPVTVSWNSGALTSGVHTFPAVLQASGLYSLSSMVTVPSSRWLSDTFTCNVAHPPSNTKVDKTVRKTDHPPGPKPCDCPKCPPPEAAGGPSIFIFPPKPKDTLMISRTPEVTCLVVDLGPDDSDVQITWFVDNTQVYTAKTSPREEQFNSTYRVVSVLPILHQDWLKGKEFKCKVNSKSLPSPIERTISKAKGQPHEPQVYVLPPAQEELSRNKVSVTCLIKSFHPPDIAVEWEITGQPEPENNYRTTPPQLDSDGTYFVYSKLSVDRSHWQRGNTYTCSVSHEALHSHHTQKSLTQSPG
light: EIQMTQSPTSLSASVGDRVTITCRASEGIANNLSWYQQTPGKAPKLLIYATSNLHSGVPSRFSGSGSGTDFTLTISSLQPEDFATYYCQQGFKWPLTFGGGTKLEITRSDAQPSVFLFQPSLDELHTGSASIVCILNDFYPKEVNVKWKVDGVVQNKGIQESTTEQNSKDSTYSLSSTLTMSSTEYQSHEKFSCEVTHKSLASTLVKSFNRSECQRE
notes: IgG1a constant domain with MALA mutations (M234A, L244A as printed); variable domains from WO 2023/97275
B2: IgG with feline IgG1a Fc variant S252M, I377L (antibody)
heavy: DVQLVESGGDLVKPGGSLRLTCVASGLSLTSDSMSWVRQAPGKGLQWVSTLWSNRGTYYTDSVKGRFTISKDNAENTLYLQMNNLKTEDTATYYCASIYYYEADYLHWYFDFWGQGALVTVSSASTTAPSVFPLAPSCGTTSGATVALACLVLGYFPEPVTVSWNSGALTSGVHTFPAVLQASGLYSLSSMVTVPSSRWLSDTFTCNVAHPPSNTKVDKTVRKTDHPPGPKPCDCPKCPPPEAAGGPSIFIFPPKPKDTLMISRTPEVTCLVVDLGPDDSDVQITWFVDNTQVYTAKTSPREEQFNSTYRVVSVLPILHQDWLKGKEFKCKVNSKSLPSPIERTISKAKGQPHEPQVYVLPPAQEELSRNKVSVTCLIKSFHPPDLAVEWEITGQPEPENNYRTTPPQLDSDGTYFVYSKLSVDRSHWQRGNTYTCSVSHEALHSHHTQKSLTQSPG
light: EIQMTQSPTSLSASVGDRVTITCRASEGIANNLSWYQQTPGKAPKLLIYATSNLHSGVPSRFSGSGSGTDFTLTISSLQPEDFATYYCQQGFKWPLTFGGGTKLEITRSDAQPSVFLFQPSLDELHTGSASIVCILNDFYPKEVNVKWKVDGVVQNKGIQESTTEQNSKDSTYSLSSTLTMSSTEYQSHEKFSCEVTHKSLASTLVKSFNRSECQRE
notes: Printed '1377L' read as I377L; IgG1a constant domain with MALA mutations (M234A, L244A as printed); variable domains from WO 2023/97275; also called S252M, 1377L
B3: IgG with feline IgG1a Fc variant S252M, I377Y (antibody)
heavy: DVQLVESGGDLVKPGGSLRLTCVASGLSLTSDSMSWVRQAPGKGLQWVSTLWSNRGTYYTDSVKGRFTISKDNAENTLYLQMNNLKTEDTATYYCASIYYYEADYLHWYFDFWGQGALVTVSSASTTAPSVFPLAPSCGTTSGATVALACLVLGYFPEPVTVSWNSGALTSGVHTFPAVLQASGLYSLSSMVTVPSSRWLSDTFTCNVAHPPSNTKVDKTVRKTDHPPGPKPCDCPKCPPPEAAGGPSIFIFPPKPKDTLMISRTPEVTCLVVDLGPDDSDVQITWFVDNTQVYTAKTSPREEQFNSTYRVVSVLPILHQDWLKGKEFKCKVNSKSLPSPIERTISKAKGQPHEPQVYVLPPAQEELSRNKVSVTCLIKSFHPPDYAVEWEITGQPEPENNYRTTPPQLDSDGTYFVYSKLSVDRSHWQRGNTYTCSVSHEALHSHHTQKSLTQSPG
light: EIQMTQSPTSLSASVGDRVTITCRASEGIANNLSWYQQTPGKAPKLLIYATSNLHSGVPSRFSGSGSGTDFTLTISSLQPEDFATYYCQQGFKWPLTFGGGTKLEITRSDAQPSVFLFQPSLDELHTGSASIVCILNDFYPKEVNVKWKVDGVVQNKGIQESTTEQNSKDSTYSLSSTLTMSSTEYQSHEKFSCEVTHKSLASTLVKSFNRSECQRE
notes: Printed '1377Y' read as I377Y; IgG1a constant domain with MALA mutations (M234A, L244A as printed); variable domains from WO 2023/97275; also called S252M, 1377Y

Target: feline FcRn (soluble portion of large subunit p51 isoform X1 with C-terminal 6xHis-tag, co-expressed with feline beta2-microglobulin with C-terminal STREP-TAG II) (feline) (UniProt Q5MGS7)
Assay: SPR, pH 5.9

binding, binds:
B1
B2
B3
